In the supplement of paper PMC12819154, “High-throughput peptide-centric local stability assay extends protein–ligand identification to membrane proteins, tissues and bacteria” (Nature Structural & Molecular Biology, 2025):
Some of the results follow. Most entries show no effect beyond the scatter of the controls.

Amino acid sequences for entries named in this document (tags omitted). A change or cut given only in a name is not applied to a line headed by its entry.
UniProt Q8BH51: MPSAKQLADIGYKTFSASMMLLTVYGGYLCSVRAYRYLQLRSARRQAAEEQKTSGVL
UniProt Q8C3X2: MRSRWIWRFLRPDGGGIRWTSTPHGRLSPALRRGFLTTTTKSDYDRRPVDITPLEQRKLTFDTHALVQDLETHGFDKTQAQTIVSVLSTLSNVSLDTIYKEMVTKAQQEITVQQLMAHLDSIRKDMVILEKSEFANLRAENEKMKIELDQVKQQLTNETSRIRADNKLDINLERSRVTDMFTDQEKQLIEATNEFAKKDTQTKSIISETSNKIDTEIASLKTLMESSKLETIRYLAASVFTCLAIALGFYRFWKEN
UniProt Q8C522: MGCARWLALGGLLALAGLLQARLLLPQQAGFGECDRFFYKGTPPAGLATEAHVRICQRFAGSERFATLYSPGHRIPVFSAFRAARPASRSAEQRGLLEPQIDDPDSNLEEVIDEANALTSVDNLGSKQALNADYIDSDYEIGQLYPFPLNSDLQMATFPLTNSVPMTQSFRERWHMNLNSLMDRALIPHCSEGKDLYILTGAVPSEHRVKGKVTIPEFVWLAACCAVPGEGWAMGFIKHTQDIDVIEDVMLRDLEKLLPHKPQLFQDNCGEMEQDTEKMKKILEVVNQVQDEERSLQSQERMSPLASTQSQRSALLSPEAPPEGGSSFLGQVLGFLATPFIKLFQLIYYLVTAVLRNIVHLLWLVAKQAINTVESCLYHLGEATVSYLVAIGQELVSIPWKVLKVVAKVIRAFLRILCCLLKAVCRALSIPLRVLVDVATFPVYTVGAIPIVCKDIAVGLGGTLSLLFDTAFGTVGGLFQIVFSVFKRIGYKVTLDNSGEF
UniProt Q8BTV2: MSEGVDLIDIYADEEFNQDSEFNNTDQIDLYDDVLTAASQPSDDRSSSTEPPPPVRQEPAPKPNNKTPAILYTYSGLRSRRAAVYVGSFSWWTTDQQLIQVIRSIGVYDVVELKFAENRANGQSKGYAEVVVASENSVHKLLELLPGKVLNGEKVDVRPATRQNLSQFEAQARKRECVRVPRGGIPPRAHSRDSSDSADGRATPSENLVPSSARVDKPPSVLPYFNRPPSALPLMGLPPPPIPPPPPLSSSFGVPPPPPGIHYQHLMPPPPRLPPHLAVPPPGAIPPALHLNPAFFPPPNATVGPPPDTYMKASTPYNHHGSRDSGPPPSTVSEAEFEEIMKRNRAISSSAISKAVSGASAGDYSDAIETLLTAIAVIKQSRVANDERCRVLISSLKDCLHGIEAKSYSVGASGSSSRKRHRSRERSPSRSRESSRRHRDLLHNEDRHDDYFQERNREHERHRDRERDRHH
UniProt Q8BHN3: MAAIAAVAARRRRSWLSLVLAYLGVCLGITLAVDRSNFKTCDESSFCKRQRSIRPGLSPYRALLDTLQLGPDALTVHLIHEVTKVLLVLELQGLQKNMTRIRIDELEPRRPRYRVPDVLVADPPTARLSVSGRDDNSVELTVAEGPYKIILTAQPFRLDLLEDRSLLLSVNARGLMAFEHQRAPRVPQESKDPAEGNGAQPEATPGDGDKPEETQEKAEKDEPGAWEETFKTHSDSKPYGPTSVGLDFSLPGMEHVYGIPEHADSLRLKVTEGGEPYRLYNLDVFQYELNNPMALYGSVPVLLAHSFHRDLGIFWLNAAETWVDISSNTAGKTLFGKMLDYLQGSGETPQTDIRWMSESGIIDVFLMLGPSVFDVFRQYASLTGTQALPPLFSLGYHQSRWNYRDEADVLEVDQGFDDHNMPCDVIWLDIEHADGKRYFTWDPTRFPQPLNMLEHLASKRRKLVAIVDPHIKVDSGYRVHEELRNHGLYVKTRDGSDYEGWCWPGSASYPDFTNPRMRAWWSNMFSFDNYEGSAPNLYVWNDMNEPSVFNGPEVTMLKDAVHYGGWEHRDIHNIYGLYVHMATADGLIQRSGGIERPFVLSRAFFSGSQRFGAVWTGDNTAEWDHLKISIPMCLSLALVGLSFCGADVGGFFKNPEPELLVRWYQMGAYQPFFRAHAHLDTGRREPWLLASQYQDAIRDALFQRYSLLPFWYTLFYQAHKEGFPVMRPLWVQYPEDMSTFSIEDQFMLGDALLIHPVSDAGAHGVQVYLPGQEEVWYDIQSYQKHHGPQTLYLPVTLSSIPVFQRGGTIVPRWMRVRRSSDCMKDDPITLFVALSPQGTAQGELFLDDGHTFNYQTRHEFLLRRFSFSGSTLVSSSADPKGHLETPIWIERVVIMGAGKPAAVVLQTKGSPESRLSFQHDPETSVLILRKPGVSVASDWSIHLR
UniProt Q8CFV4: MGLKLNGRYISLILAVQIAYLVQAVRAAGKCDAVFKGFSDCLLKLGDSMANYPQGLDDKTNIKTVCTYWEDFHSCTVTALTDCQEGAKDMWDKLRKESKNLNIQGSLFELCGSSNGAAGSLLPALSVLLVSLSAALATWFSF
UniProt Q8BWQ6, whole entry: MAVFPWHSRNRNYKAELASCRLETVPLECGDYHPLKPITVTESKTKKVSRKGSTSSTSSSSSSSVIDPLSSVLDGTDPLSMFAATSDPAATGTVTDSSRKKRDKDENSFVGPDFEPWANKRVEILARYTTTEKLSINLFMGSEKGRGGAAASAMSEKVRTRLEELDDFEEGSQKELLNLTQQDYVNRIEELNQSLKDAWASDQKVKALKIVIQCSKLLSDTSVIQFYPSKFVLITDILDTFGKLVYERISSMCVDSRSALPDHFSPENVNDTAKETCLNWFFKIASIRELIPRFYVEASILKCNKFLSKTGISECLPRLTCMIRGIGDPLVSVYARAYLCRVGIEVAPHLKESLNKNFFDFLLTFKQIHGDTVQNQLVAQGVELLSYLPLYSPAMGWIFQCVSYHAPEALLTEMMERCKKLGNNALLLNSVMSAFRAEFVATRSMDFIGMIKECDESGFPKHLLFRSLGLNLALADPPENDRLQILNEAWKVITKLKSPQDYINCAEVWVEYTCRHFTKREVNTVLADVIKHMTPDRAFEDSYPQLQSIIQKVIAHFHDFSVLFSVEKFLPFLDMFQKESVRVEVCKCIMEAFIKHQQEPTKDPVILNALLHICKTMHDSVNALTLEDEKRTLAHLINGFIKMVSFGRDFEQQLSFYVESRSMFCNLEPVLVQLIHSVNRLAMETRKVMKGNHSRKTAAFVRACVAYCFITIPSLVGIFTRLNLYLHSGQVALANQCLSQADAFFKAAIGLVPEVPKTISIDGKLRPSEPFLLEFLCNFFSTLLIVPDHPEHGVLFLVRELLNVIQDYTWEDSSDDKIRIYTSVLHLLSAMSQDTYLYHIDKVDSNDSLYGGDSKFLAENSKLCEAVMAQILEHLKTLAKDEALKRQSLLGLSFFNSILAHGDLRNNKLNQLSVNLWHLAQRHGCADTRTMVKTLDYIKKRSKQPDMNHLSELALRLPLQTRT
UniProt Q8BHE8: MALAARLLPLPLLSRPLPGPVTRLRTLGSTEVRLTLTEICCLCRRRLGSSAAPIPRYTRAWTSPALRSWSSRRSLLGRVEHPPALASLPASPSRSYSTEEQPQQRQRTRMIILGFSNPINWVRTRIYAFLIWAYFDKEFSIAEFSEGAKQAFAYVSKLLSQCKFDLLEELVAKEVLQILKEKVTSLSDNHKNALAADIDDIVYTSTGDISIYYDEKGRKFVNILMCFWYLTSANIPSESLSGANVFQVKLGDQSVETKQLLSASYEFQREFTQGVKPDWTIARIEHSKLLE
UniProt Q8BJM3: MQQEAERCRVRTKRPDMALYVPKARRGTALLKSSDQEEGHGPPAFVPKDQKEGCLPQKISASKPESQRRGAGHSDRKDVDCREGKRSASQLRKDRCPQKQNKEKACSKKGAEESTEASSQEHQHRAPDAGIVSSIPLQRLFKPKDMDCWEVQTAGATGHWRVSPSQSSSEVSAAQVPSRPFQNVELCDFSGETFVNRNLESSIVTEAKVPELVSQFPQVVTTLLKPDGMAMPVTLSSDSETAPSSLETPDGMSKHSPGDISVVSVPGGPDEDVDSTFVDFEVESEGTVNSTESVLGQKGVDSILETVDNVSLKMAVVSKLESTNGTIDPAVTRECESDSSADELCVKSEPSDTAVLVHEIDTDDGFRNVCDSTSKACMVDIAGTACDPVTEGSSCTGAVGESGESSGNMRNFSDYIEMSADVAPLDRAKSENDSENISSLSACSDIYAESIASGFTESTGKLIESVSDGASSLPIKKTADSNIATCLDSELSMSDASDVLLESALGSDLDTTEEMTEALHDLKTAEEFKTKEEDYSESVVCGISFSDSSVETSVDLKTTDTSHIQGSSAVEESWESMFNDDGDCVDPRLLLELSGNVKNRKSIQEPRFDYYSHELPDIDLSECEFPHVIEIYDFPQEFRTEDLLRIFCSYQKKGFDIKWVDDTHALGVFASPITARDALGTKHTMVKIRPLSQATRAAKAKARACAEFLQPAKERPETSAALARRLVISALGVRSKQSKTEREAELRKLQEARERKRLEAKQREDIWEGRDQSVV
UniProt Q8BHH1: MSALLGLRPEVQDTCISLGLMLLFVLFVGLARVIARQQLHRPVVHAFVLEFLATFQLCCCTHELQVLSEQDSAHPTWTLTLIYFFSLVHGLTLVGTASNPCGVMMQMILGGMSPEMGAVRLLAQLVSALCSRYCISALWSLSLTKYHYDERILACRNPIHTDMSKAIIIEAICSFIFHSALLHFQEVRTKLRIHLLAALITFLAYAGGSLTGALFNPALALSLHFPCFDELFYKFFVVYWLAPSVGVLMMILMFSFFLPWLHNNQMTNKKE
UniProt Q8CBC6: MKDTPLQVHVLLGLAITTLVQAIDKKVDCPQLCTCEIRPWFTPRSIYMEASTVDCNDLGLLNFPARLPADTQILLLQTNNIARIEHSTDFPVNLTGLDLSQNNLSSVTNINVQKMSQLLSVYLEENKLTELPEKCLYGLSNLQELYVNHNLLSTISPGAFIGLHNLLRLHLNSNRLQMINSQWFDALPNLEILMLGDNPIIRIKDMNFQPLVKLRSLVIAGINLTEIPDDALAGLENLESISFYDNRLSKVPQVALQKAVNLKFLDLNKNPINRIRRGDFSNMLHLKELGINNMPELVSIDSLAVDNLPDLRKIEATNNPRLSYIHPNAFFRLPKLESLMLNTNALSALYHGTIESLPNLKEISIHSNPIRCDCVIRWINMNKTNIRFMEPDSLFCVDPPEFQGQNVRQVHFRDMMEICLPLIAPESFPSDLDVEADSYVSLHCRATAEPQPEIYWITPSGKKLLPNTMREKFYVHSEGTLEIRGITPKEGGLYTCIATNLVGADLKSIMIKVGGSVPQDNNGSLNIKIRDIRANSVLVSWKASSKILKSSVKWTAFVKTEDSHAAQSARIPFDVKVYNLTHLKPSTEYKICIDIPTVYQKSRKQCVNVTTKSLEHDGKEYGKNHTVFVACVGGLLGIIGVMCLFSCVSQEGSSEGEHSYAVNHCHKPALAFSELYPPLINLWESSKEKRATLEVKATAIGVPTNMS
UniProt Q8BI08: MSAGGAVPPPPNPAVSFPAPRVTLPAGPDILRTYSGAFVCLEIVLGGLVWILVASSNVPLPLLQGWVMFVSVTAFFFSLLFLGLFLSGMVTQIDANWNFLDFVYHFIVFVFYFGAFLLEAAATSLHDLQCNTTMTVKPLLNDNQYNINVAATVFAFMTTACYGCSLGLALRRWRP
UniProt Q8C0L6: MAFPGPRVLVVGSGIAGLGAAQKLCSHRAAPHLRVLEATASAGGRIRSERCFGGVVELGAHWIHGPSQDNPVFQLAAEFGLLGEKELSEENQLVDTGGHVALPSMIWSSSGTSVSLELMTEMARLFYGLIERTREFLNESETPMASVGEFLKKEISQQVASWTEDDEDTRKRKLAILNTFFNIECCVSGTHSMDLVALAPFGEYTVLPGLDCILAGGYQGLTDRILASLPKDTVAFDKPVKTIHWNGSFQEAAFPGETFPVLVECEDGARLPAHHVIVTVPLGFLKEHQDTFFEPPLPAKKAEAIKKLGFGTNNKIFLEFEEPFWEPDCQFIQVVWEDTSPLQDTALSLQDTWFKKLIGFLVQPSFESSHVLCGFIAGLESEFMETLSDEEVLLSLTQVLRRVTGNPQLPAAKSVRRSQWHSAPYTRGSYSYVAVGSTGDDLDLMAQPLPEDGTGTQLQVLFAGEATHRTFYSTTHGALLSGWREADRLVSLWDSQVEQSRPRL
UniProt Q8C0C7: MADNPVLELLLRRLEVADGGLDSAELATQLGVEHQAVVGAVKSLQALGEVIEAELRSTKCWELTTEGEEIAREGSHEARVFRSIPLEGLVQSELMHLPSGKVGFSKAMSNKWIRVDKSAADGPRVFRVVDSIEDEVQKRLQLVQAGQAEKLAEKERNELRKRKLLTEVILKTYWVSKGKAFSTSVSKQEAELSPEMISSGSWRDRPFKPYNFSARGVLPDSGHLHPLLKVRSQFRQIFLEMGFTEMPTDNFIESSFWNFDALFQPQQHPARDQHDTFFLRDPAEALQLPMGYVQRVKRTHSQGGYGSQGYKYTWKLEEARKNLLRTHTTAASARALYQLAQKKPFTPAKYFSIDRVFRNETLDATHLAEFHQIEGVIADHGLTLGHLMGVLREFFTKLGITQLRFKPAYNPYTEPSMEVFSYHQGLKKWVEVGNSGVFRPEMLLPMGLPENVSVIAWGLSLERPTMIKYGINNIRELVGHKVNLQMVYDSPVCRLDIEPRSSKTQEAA

These targets were tested with CN[C@@H]1C[C@H]2O[C@@](C)([C@@H]1OC)n1c3ccccc3c3c4c(c5c6ccccc6n2c5c31)C(=O)NC4 [staurosporine] (assay: log2 fold change of pooled soluble protein (PISA), ligand vs vehicle (log2 ratio); higher = more thermally stabilized). Conditions: ligand concentration: 20 uM; assay format: PISA pool 52.9/55.5/58.6 C.

Target | log2 fold change of pooled soluble protein
UniProt Q8BKZ9 | -0.0393
UniProt Q8BH51 | -0.0562
UniProt Q8BZI6 | -0.0896
UniProt Q8BJH1 | -0.0537
UniProt Q8C3X2 | -0.207
UniProt Q8C522 | -0.209
UniProt Q8BTV2 | -0.104
UniProt Q8BHN3 | -0.012
UniProt Q8CFV4 | -0.0508
UniProt Q8BPM0 | -0.422
UniProt Q8C650 | -0.301
UniProt Q8BYU6 | -0.136
UniProt Q8BWQ6 | -0.0269
UniProt Q8BHE8 | -0.13
UniProt Q8BJM3 | -0.16
UniProt Q8BHH1 | -0.375
UniProt Q8CBC6 | 0.253
UniProt Q8CEE7 | 0.0469

A few values from above.
UniProt Q8BTV2 – log2 fold change of pooled soluble protein: -0.104
UniProt Q8C3X2 – log2 fold change of pooled soluble protein: -0.207

Next part

Target | log2 fold change of pooled soluble protein
UniProt Q8CF94 | 0.277
UniProt Q8BTI8 | 0.04
UniProt Q8BU85 | -0.11
UniProt Q8BI08 | -0.0344
UniProt Q8BTE5 | -0.227
UniProt Q8C0L6 | 0.294
UniProt Q8BP40 | 0.00308
UniProt Q8C2Q3 | 0.0154
UniProt Q8BGS2 | 0.069
UniProt Q8BZW8 | -0.158
UniProt Q8C0C7 | -0.321
UniProt Q8BWR2 | -0.631
UniProt Q8BVQ5 | 0.00199
UniProt Q8C0Y0 | -0.0631
UniProt Q8CG14 | -0.0472
UniProt Q8BVR6 | 0.0559
UniProt Q8BMA6 | 0.127
UniProt Q8CAS9 | 0.0603
